Experimental data as given in PubChem BioAssay AID687031 (Broad Institute, 2013).
Out of some 1,400 compounds screened, about 50 (4%) were called active.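 The calls were made as follows: active = fitted curve reaches 30% CPE protection at or below the top valid dose, with every test run called active; inconclusive = test runs disagree, some active and some not; inactive = every test run inactive, including effects in the wrong direction.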 Some of the results follow. Potency and affinity values are given separately.

Experiment: Dengue virus 2 cytopathic effect protection, dose response, BHK-21 cells, ATP luminescence, cherry-pick (AID 687031);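 also: 0% = infected DMSO wells and 100% = uninfected cell wells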
Settings: BHK-21 DENV2 CPE protection, 5 d; at 19.5 µM (top of the series) unless noted

CPE protection (higher = active), inactive:
CC(C)OC(=O)N(C)C[C@@H]1OCc2cn(nn2)CCCC(=O)N([C@H](C)CO)C[C@@H]1C -9.76%
OC1(c2ccc(Cl)cc2)CCN(Cc2c[nH]c3ccccc23)CC1 24.7%
CN1C(C(=O)NCc2ccc(OC(F)(F)F)cc2)CC2Cn3c(nc4ccccc43)C21 (stereo not given) -15.3%
CC12CCC(=O)N1C(C(=O)Nc1nc(-c3ccccc3)cs1)CS2 (stereo not given) -9.64%
Cc1ccc(C(=O)O/N=C(\N)c2ccccn2)cc1 23.3%
CCCC(=O)Nc1ccc2nn(-c3ccc(OC)cc3)nc2c1 -9.23%
COc1ccc(C(=O)N2CCN(C3CCCCC3)CC2)cc1OC 11.6%
CCCN1[C@H](C(=O)NCC(F)(F)F)[C@@H](CO)[C@@H]2Cn3c(ccc(-c4ccccc4)c3=O)[C@@H]21 9.56%
CCOc1ccc(NC(=O)Cc2ccc(S(=O)(=O)N3CCOCC3)s2)cc1OCC -6.85%
O=C(C[C@H]1CC[C@H]2[C@@H](COC[C@@H](O)CN2Cc2cccc(C(F)(F)F)c2)O1)NCc1ccc(F)cc1 9.51%
COc1ccc2ccccc2c1CNC(C)c1ccccc1 (stereo not given) -19.4%
COCCNC(=O)C1(C)CCCN(C(=O)c2ccccc2)C1 (stereo not given) -6.95%
O=C(NCc1ccccc1)C(c1ccncc1)n1c(=O)c(-c2ccccc2)nc2ccccc21 (stereo not given) -4.2%
COC(=O)[C@]12CCCCC=C1N(Cc1cccc3ccccc13)C(=O)[C@H](CC(=O)N1CCOCC1)C2 4.23%
COc1ccc(C(C(=O)NCc2ccccc2)n2c(-c3ccncc3)nc3ccccc32)cc1 (stereo not given) 10.5%
O=C(C[C@@H]1CC[C@@H]2[C@H](COC[C@H](O)CN2Cc2cccc(Cl)c2)O1)N1CCOCC1 32.2%
N#Cc1c(Nc2ccccc2)[n+]([O-])c2ccc(Cl)cc2[n+]1[O-] -32.8%
CCNC(=O)C[C@H]1CC[C@@H]2[C@H](COC[C@H](O)CN2Cc2ccc(Cl)c(Cl)c2)O1 12.1%
COc1ccc(CC(=O)OCC(=O)NCCNC(=O)COC(=O)Cc2ccc(OC)cc2)cc1 10.7%
Cc1ccccc1S(=O)(=O)N1CC[C@H]2[C@@H](CO)N(C)c3ccc(Br)cc3[C@H]21 2.06%
C[C@@H]1CN([C@H](C)CO)C(=O)c2cc(C#Cc3ccc(F)cc3)cnc2O[C@@H]1CN(C)C 24.7%
Cc1ccc2ccc(C(Nc3ccccc3)c3ccccc3)c(O)c2n1 (stereo not given) -6.24%
Cc1nccn1CC(O)COc1ccc(Cl)cc1Cl (stereo not given) -6.74%
COc1ccc(NC(=O)N(C)C[C@H]2OCCCC[C@@H](C)Oc3ccc(NS(C)(=O)=O)cc3C(=O)N([C@H](C)CO)C[C@H]2C)cc1 11.2%
CNC(=O)C[C@H]1CC[C@@H]2[C@H](COC[C@@H](O)CN2C(=O)Nc2ccc3c(c2)OCO3)O1 13%

Some of these compounds in order of length of the SMILES, rising.
CPE protection (higher = active), inactive:
Cc1ccc2ccc(C(Nc3ccccc3)c3ccccc3)c(O)c2n1 (stereo not given) -6.24%
O=C(C[C@@H]1CC[C@@H]2[C@H](COC[C@H](O)CN2Cc2cccc(Cl)c2)O1)N1CCOCC1 32.2%
CNC(=O)C[C@H]1CC[C@@H]2[C@H](COC[C@@H](O)CN2C(=O)Nc2ccc3c(c2)OCO3)O1 13%
